Measured values reported in the supplement of paper PMC12425257.
± gives the standard deviation of the averaged measurements. Some of the results follow.

Test system: Madurella mycetomatis MM55
Assay: metabolic activity (growth) relative to DMSO growth control; higher = more fungal growth

SMILES | metabolic activity (1 µM) [%] | metabolic activity (2 µM) [%] | metabolic activity (10 µM) [%]
CNC(=O)c1ccc2c(c1)ncn2-c1ccc(CC(=O)OC(C)(C)C)cc1 | 84.9 ± 6.7 | 76.1 ± 18 | 77.6 ± 18
CCOc1cc(C(=O)N2CCC(N3CCN(C)CC3)CC2)ccc1Nc1ncc2c(n1)N(C1CCCC1)c1ccccc1C(=O)N2C | 99.8 ± 28 | 81.5 ± 5.4 | 90.3 ± 14
O=C(Nc1n[nH]c2cc(-c3cccc(F)c3)ccc12)C1CC1 | 80.1 ± 1.5 | 97.3 ± 22 | 117 ± 4.2
CC(C)(C)c1cnc(CSc2cnc(NC(=O)C3CCS(=O)(=O)CC3)s2)o1 | 117 ± 23 | 95.2 ± 41 | 104 ± 16
CC(C)N1CC(=O)N(C)c2cnc(Nc3cccc(S(=O)(=O)CCN4CCOCC4)c3)nc21 | 100 ± 14 | 78.4 ± 18 | 120 ± 26
Cn1ccc(-c2cccc(Nc3ccnc4cc(-c5nccs5)ccc34)c2)n1 | 92.4 ± 2.5 | 90.9 ± 5.1 | 90.3 ± 1.8
NS(=O)(=O)c1cccc(-c2ccc3nccc(-c4cccc(S(N)(=O)=O)c4)c3c2)c1 | 95.7 ± 8.8 | 81.3 ± 6.7 | 85.1 ± 23
CC(C)c1cc(-c2ccc3c(N)n[nH]c3c2)nc(N)n1 | 86.9 ± 12 | 93.2 ± 25 | 117 ± 7.7
CCCNC(=O)c1ccc(Nc2ncc(C(F)(F)F)c(Nc3ccccc3C(C)=O)n2)c(Br)c1 | 90.8 ± 4.8 | 125 ± 29 | 112 ± 1.8
NC(=O)c1c(Nc2ccc(I)cc2F)cc(F)cc1Oc1cccc(NS(N)(=O)=O)c1 | 95.1 ± 17 | 104 ± 15 | 107 ± 57
CN(C)CCOc1ccc(-c2nc(-c3ccc4c(c3)CC/C4=N\O)c(-c3ccncc3)[nH]2)cc1 | 101 ± 9.2 | 76.5 ± 1.2 | 111 ± 58
CCS(=O)(=O)c1ccc(OC)c(Nc2ncc(-c3cccc(F)c3)o2)c1 | 109 ± 30 | 67.08 ± 0.57 | 95.5 ± 45
CC(C)(O)c1nnc2ccc(-c3c(-c4ccc(F)cc4F)nc4n3CCC4)nn12 | 118 ± 6.2 | 113.1 ± 0.65 | 109 ± 6.5
O=C(Nc1n[nH]c2nc(-c3nccs3)c(Br)cc12)C1CCCC1 | 112 ± 12 | 93.8 ± 2.8 | 131 ± 63
CN(C)CCNC(=O)Nc1ccc(N(C)c2ccnc(Nc3ccc(CS(C)(=O)=O)cc3)n2)cc1.Cl | 110 ± 44 | 110 ± 5 | 106 ± 28
Cc1ccc(C(=O)NCC(N)=O)cc1-n1c(C)cc(OCc2ccc(F)cc2F)c(Br)c1=O | 103 ± 4.1 | 101 ± 8 | 102 ± 3.7
Cc1cccc(-c2cnc3occ(-c4ccc(C(=O)O)c(C5CCCC5)c4)c3c2)c1 | 73.2 ± 17 | 85.1 ± 35 | 56.1 ± 62
CN1C(=O)c2sccc2N(C)c2nc(Nc3ccc(S(=O)(=O)NCCCNC(=O)OC(C)(C)C)cc3)ncc21 | 107 ± 18 | 89.2 ± 9.4 | 102 ± 11
CCn1cc(-c2ccnc3[nH]c(-c4cccc(CN(C)C)c4)cc23)c(-c2ccc(NC(=O)N(C)C)cc2)n1 | 118 ± 16 | 102 ± 32 | 111 ± 8.8
COc1cc2ncn(-c3cc(OCC4CCCO4)c(C(N)=O)s3)c2cc1OC (centres undefined) | 107 ± 1.8 | 116 ± 21 | 96 ± 27
COc1cccc(-c2c[nH]c3c(N/N=C/c4ccncc4)ncnc23)c1 | 99.9 ± 17 | 102 ± 2.2 | 81.9 ± 15
COc1cc(N2CCN(C(C)C)CC2)ccc1Nc1nc(Nc2ccc(F)cc2C(=O)NC[C@@H](O)CO)c2cc[nH]c2n1 | 96 ± 22 | 113 ± 18 | 112 ± 2.5
CNC(=O)c1c(F)cccc1Nc1nc(Nc2cc3c(cc2OC)CCN3C(=O)CN(C)C)nc2[nH]ccc12 | 100 ± 17 | 88.3 ± 26 | 84.2 ± 3.3

SMILES | metabolic activity (1 µM) [%] | metabolic activity (2 µM) [%] | metabolic activity (10 µM) [%]
CCC(NN(C)C)=C1C(=O)Nc2ccc(C(C)=O)cc21 | 108 ± 61 | 99.5 ± 18 | 102 ± 20
O=C(Nc1cnccn1)Nc1ccnc2c(F)cccc12 | 116 ± 19 | 131.6 ± 0.73 | 97.4 ± 3.2
CN1CCN(Cc2ccc3c(c2)Cc2c(-c4cccs4)n[nH]c2-3)CC1 | 106 ± 6.2 | 86.7 ± 32 | 97.8 ± 28
COc1cc(/C=N/Nc2ncnc3[nH]ncc23)ccc1O | 131 ± 62 | 122 ± 41 | 81 ± 7.2
CCn1c(-c2nonc2N)nc2ccccc21 | 87.4 ± 7 | 81.7 ± 15 | 95.8 ± 14
COCCOCCOc1cc2c(cc1OC)NC(=O)c1ccc(-c3ccc([N+](=O)[O-])c(OC)c3)cc1N2 | 92.8 ± 4.1 | 120 ± 20 | 84.4 ± 18
CC(C)C(=O)N[C@@H]1CCN(C(=O)Nc2nc3c(s2)-c2nc(-c4ccccc4Cl)ncc2CC3)C1 | 90.5 ± 23 | 102 ± 4.5 | 101 ± 19
CCn1c(-c2nonc2N)nc2cncc(CNC3CCNCC3)c21 | 108 ± 20 | 112 ± 21 | 154 ± 43
CN1C(=O)[C@@H](NC(=O)c2cc(Cc3ccccc3)on2)COc2ccccc21 | 95.4 ± 16 | 108 ± 25 | 125 ± 4.5
Cn1cc(-c2ccc(-c3cncc(Cl)c3N3CCC4(CCNC4=O)CC3)cc2)cn1 | 88.4 ± 26 | 115 ± 6.9 | 114 ± 18
COc1cc(N2CCN(C)CC2)ccc1Nc1ncc2c(n1)N(C)c1ccccc1C(=O)N2 | 85.7 ± 12 | 78.4 ± 2 | 69.9 ± 31
O=C(O)C(F)(F)F.O=C(O)C(F)(F)F.O=c1c2cnc(Nc3ccc(N4CCN(CC5CCCCC5)CC4)cc3)nc2n2ccnc2n1-c1ccccc1Cl | 94.8 ± 7.8 | 80.7 ± 25 | 82.6 ± 2.6
NS(=O)(=O)c1ccc(N/N=C2\C(=O)Nc3ccc(Cl)cc32)cc1 | 114 ± 5 | 119 ± 26 | 96.7 ± 17
COCCOCC#Cc1cc(-c2n[nH]c3c2C(=O)c2cc(CN4CCN(C)CC4)ccc2-3)cs1 | 84.1 ± 21 | 97.9 ± 21 | 89.7 ± 26
Cn1cncc1-c1ccc(C(=O)N[C@H](CN)c2ccccc2)cc1 | 100 ± 22 | 127 ± 24 | 92.7 ± 11
Cc1sc2ncnc(N)c2c1-c1ccc(NC(=O)c2cc3ccccc3[nH]2)cc1 | 102 ± 24 | 97.6 ± 19 | 117 ± 8.7
Nc1nonc1-n1ncc2c(NC(=O)c3ccccc3Cl)cccc21 | 99.1 ± 17 | 102 ± 25 | 104 ± 20
COCCNC(=O)c1ccc(-c2cc(C(=O)NC3CC3)cc(F)c2C)cc1 | 106 ± 34 | 80.5 ± 6.9 | 112 ± 1.5
O=S(=O)(NCCNC/C=C/c1ccc(Br)cc1)c1cccc2cnccc12 | 103 ± 17 | 131 ± 12 | 100.9 ± 0.67
Cc1cccc(CC(=O)N2CCc3c2ccc(-c2cn(C)c4ncnc(N)c24)c3F)n1 | 88.6 ± 3.5 | 81.8 ± 29 | 110 ± 4
CCS(=O)(=O)c1ccc(OC)c(Nc2ncc(-c3cccc(OC)c3)o2)c1 | 113 ± 4.2 | 72.9 ± 4.2 | 97.4 ± 16
CCCc1cc(N2CCCN(C)CC2)nc2sc3c(N)ncnc3c12 | 87.6 ± 15 | 79.3 ± 6.3 | 90.1 ± 25
NC[C@@H](NC(=O)c1cccc(-c2ccccn2)c1)c1ccccc1 | 96.3 ± 24 | 129 ± 13 | 112 ± 1.2

Compounds above containing two or more sulfur atoms (3):
SMILES | metabolic activity (1 µM) [%] | metabolic activity (2 µM) [%] | metabolic activity (10 µM) [%]
CC(C)(C)c1cnc(CSc2cnc(NC(=O)C3CCS(=O)(=O)CC3)s2)o1 | 117 ± 23 | 95.2 ± 41 | 104 ± 16
NS(=O)(=O)c1cccc(-c2ccc3nccc(-c4cccc(S(N)(=O)=O)c4)c3c2)c1 | 95.7 ± 8.8 | 81.3 ± 6.7 | 85.1 ± 23
CN1C(=O)c2sccc2N(C)c2nc(Nc3ccc(S(=O)(=O)NCCCNC(=O)OC(C)(C)C)cc3)ncc21 | 107 ± 18 | 89.2 ± 9.4 | 102 ± 11

(cont.)

SMILES | metabolic activity (1 µM) [%] | metabolic activity (2 µM) [%] | metabolic activity (10 µM) [%]
COc1ccc2[nH]c3c4[nH]c5ccc(OC)cc5c4c4c(c3c2c1)C(=O)NC4=O | 115 ± 24 | 96.7 ± 1.4 | 109 ± 26
Cc1ccc(-c2cc(-c3c[nH]nc3-c3ccccn3)ccn2)cc1 | 98.2 ± 10 | 73.2 ± 4.6 | 80.3 ± 21
CN1CCC(NC(=O)c2n[nH]cc2NC(=O)c2c(F)cccc2F)CC1 | 116 ± 8.8 | 125 ± 22 | 116 ± 2.1
COc1cc(C(=O)NC2CCN(C)CC2)ccc1Nc1ncc2c(n1)N(C1CCCC1)CC(F)(F)C(=O)N2C | 100 ± 4.1 | 117 ± 7.4 | 99.3 ± 19
Fc1ccc(CNc2ccc3ncc(-c4cccc(OC(F)(F)F)c4)n3n2)cc1 | 112 ± 24 | 113 ± 2.1 | 163 ± 14
CC[C@@H](CO)Nc1ccnc(Nc2cccc(NC(=O)C(C)C)c2)n1 | 97.9 ± 2.8 | 87.8 ± 3.9 | 117 ± 2.9
CN1c2ccsc2C(=O)Nc2cnc(Nc3ccc(S(=O)(=O)NCCCNC(=O)OC(C)(C)C)cc3)nc21 | 92.5 ± 1.1 | 132 ± 3.7 | 85.8 ± 18
FC1=CC(C3=NC2=CC(OC)=C(OC)C=C2C(N[C@H]4[C@H]([C@](C)(O)C)CNC4)=N3)=C(O)C=C1.Cl.Cl | 120 ± 19 | 93.2 ± 4.9 | 101 ± 17
CSc1cccc(-c2cc3c(SCCC(=O)O)ncnc3s2)c1 | 105 ± 20 | 76.2 ± 22 | 102 ± 25
COc1cc2c(cc1OC)C(=C(Nc1ccccc1)c1cccc(CN)c1)C(=O)N2 | 105 ± 15 | 66.5 ± 0.76 | 97.7 ± 18
O=c1cc(N2CCOCC2)nc2n(Cc3ccccc3F)ccn12 | 86.9 ± 16 | 107 ± 14 | 92.9 ± 22
Cc1cccc(-c2nc(Nc3ccc4ncoc4c3)c3ccccc3n2)n1 | 99 ± 34 | 75.6 ± 50 | 126 ± 18
COc1ccc(-c2cc3c(C)nc(N)nc3n([C@H]3CC[C@H](O)CC3)c2=O)cn1 | 91.5 ± 23 | 80.8 ± 3.2 | 113 ± 1.6
Cn1ccc2ncnc(Oc3ccc(Nc4nc5ccccc5[nH]4)cc3)c21 | 121 ± 20 | 93.1 ± 2 | 104 ± 24
CN(C)Cc1nc2c(sc3ccc(-c4ccc(O)cc4)cc32)c(=O)[nH]1.Cl | 98.9 ± 21 | 94.3 ± 16 | 90.2 ± 28
CCOc1ccc2c(-c3ccnc(Nc4cc(N5CCOCC5)cc(C(F)(F)F)c4)n3)cnn2n1 | 74.7 ± 10 | 72 ± 1.3 | 95.5 ± 9.1
CC(C)S(=O)(=O)c1ccc2nccc(Nc3ccc4scnc4c3)c2c1 | 107 ± 1.1 | 67.6 ± 8.2 | 77.8 ± 9.6
CN1c2ccccc2C(=O)Nc2cnc(Nc3ccc(S(=O)(=O)NCCCNC(=O)OC(C)(C)C)cc3)nc21 | 86.98 ± 0.86 | 109 ± 20 | 84.1 ± 11
O=C(Nc1ccc(NC(=O)C2CCCN(c3cccnn3)C2)cc1)c1ccncc1 (centres undefined) | 89.4 ± 14 | 76.4 ± 10 | 101 ± 28
CC(C)(C)c1cnc(CSc2cnc(NC(=O)C3CCOCC3)s2)o1 | 102 ± 8.8 | 108 ± 14 | 67.2 ± 3.4
CNS(=O)(=O)c1ccc(N(C)C)c(Nc2ncnc3cc(OC)c(OC)cc23)c1 | 81.2 ± 10 | 84 ± 17 | 77 ± 11
CCN1CCN(Cc2ccc(C(=O)Nc3ccc(C)c(Oc4ccc5c(c4)CC(=O)N5)c3)cc2C(F)(F)F)CC1.Cl.Cl | 91.1 ± 22 | 108 ± 3.6 | 126 ± 44
